# Literature values in patent US20110200625A1, “PHARMACEUTICAL COMPOSITION” (priority 2010, published 2011).
# Conditions: room temperature; cited from earlier work
compound,measurement,value
CO[C@H]1C[C@@H]2CC[C@@H](C)[C@@](O)(O2)C(=O)C(=O)N2CCCC[C@H]2C(=O)O[C@H]([C@H](C)C[C@@H]2CC[C@@H](O)[C@H](OC)C2)CC(=O)[C@H](C)/C=C(\C)[C@@H](O)[C@@H](OC)C(=O)[C@H](C)C[C@H](C)/C=C/C=C/C=C/1C [rapamycin],water-solubility,very poor
